Measured values taken from publication PMC12310818.
The exact form of at least one protein or probe is not confirmed. For some assays here: A negative result means that nothing was seen under these conditions. For some assays here: The comparison behind a weaker result is the experiment's own reference, which may not be listed here.

Legend:
[1] = system: His-MsILR3 (Medicago sativa (alfalfa)); test: EMSA; conditions: Chemiluminescent EMSA kit (GS009, Beyotime), pH and temperature not stated, recombinant protein, protein details: His (pCold-His vector), label: biotin
[2] = system: His-MsAREB1 (Medicago sativa (alfalfa)); test: EMSA; conditions: Chemiluminescent EMSA kit (GS009, Beyotime), pH and temperature not stated, recombinant protein, protein details: His (pCold-His vector), label: biotin
[3] = system: His-MsILR3 (Medicago sativa (alfalfa)); test: competition with a labelled probe; conditions: increasing unlabelled competitor against biotin N1 decreased binding; Chemiluminescent EMSA kit (GS009, Beyotime); pH and temperature not stated; recombinant protein; protein details: His (pCold-His vector)
[4] = system: His-MsAREB1 (Medicago sativa (alfalfa)); test: competition with a labelled probe; conditions: unlabelled competitor against biotin N1 decreased binding; Chemiluminescent EMSA kit (GS009, Beyotime); pH and temperature not stated; recombinant protein; protein details: His (pCold-His vector)

“TGGCAACTGCCACGTGTGCTTCAAAA (double strand) [MsMIOX2 promoter G-box probe]”: binds [1]; binds more weakly ([1]; with His-MsAREB1 (MsILR3 at 1- and 2-fold MsAREB1), signal rose with more MsILR3); binds [2]. “TGGCAACTGCCACGTGTGCTTCAAAA (double strand) [MsMIOX2 promoter G-box probe]”: binds more weakly ([2]; with His-MsILR3 at 1- and 2-fold MsAREB1).

“TGGCAACTGCCACGTGTGCTTCAAAA (double strand) [Unlabelled MsMIOX2 promoter G-box competitor]”: binds [3]; binds [4].

“TGGCAACTGCTTCATGTGCTTCAAAA (double strand) [mMsMIOX2 promoter G-box mutant probe]”: no binding [1]; no binding [2].
